The record followed here is PubChem BioAssay AID248 (DTP/NCI, 2004).

The list is a part of this screen's results and no random one: it gathers tests that were run many times, whatever their T/C, doses with no T/C, and many T/C values between a quarter and a half above the control. Further doses and runs are listed elsewhere. T/C is the treated group as % of the vehicle group. Some doses have a count of surviving animals in place of a T/C: the source holds a T/C of zero for them, seemingly a mark for toxic or unscored doses. Some doses without a T/C left all or most animals alive at the check, yet need not have been tolerated: survival well below the control is almost never listed, so the zero probably covers shortened survival too. Survivors were counted at the toxicity check, usually on the fifth day, unless a day is given; later deaths do not show. Schedules are NCI's codes, read here as Q, the interval in days (D) or hours (H), X, the number of doses. Some schedules carry Z or #; the key to these is not given. Some entries were tested several times; the results are listed from low to high. Where survival is the endpoint, this PubChem deposit counts one and a half times the control or more as active, and values a quarter to a half above the control carry no call in these data; other NCI protocols may use other cut-offs. Some T/C values are followed by the survivors on the day toxicity was checked, most often the fifth; where none is given, no animal had died by that day.

The test deals with L1210 leukemia ip in BDF1 mice, survival T/C. As to the kind of experiment: NCI In Vivo Anticancer Drug Screen. Data for tumor model L1210 Leukemia (intraperitoneal) in B6D2F1 (BDF1) mice. As to conditions: T/C endpoint: mean survival time, higher T/C = longer survival.
The mark [1] stands for this setting: dose: 25.0 mg/kg/injection, schedule: Q01DX009 (ip), vehicle: Klucel (hydroxypropylcellulose) (HPC).
Setting [2] is: dose: 50.0 mg/kg/injection, schedule: Q01DX009 (ip), vehicle: Klucel (hydroxypropylcellulose) (HPC).
The mark [3] stands for this setting: dose: 100.0 mg/kg/injection, schedule: Q01DX009 (ip), vehicle: Klucel (hydroxypropylcellulose) (HPC).
The mark [4] stands for this setting: dose: 200.0 mg/kg/injection, schedule: Q01DX009 (ip), vehicle: Klucel (hydroxypropylcellulose) (HPC).
The mark [5] stands for this setting: dose: 400.0 mg/kg/injection, schedule: Q01DX001 (ip), vehicle: carboxymethylcellulose (CMC).

As to `CC(=O)c1cc(CN(CCCl)CCCl)c(O)c(CN(CCCl)CCCl)c1O`, the T/C runs as follows: (dose: 3.75 mg/kg/injection, schedule: Q01DX009 (ip), vehicle: carboxymethylcellulose (CMC)) 125 % of control; (dose: 5.5 mg/kg/injection, schedule: Q01DX009 (ip), vehicle: Klucel (hydroxypropylcellulose) (HPC)) 126 % of control; (dose: 7.5 mg/kg/injection, schedule: Q01DX009 (ip), vehicle: carboxymethylcellulose (CMC)) 125 % of control; (dose: 8.3 mg/kg/injection, schedule: Q01DX009 (ip), vehicle: Klucel (hydroxypropylcellulose) (HPC)) 130 % of control; (dose: 12.5 mg/kg/injection, schedule: Q01DX009 (ip), vehicle: Klucel (hydroxypropylcellulose) (HPC)) 118, 120, 129, 130 % of control; (dose: 35.0 mg/kg/injection, schedule: Q01DX001 (ip), vehicle: carboxymethylcellulose (CMC)) 141 % of control. Besides, the T/C (dose: 53.0 mg/kg/injection, schedule: Q01DX001 (ip), vehicle: carboxymethylcellulose (CMC)) was 137 % of control; the T/C (dose: 80.0 mg/kg/injection, schedule: Q01DX001 (ip), vehicle: carboxymethylcellulose (CMC)) was 134 % of control; the T/C (dose: 100.0 mg/kg/injection, schedule: Q01DX001 (ip), vehicle: carboxymethylcellulose (CMC)) was 132 % of control; the T/C (dose: 120.0 mg/kg/injection, schedule: Q01DX001 (ip), vehicle: carboxymethylcellulose (CMC)) was 149 % of control; the T/C (dose: 177.0 mg/kg/injection, schedule: Q01DX001 (ip), vehicle: carboxymethylcellulose (CMC)) was 135 % of control [5 of 6 alive]; the T/C (dose: 200.0 mg/kg/injection, schedule: Q01DX001 (ip), vehicle: carboxymethylcellulose (CMC)) was 140 % of control. Under setting [5], the T/C is 145 % of control [4 of 6 alive]. In addition, the survivor count is, setting by setting: under setting [1], 4 of 6; under setting [2], 0 of 6; (dose: 60.0 mg/kg/injection, schedule: Q01DX009 (ip), vehicle: carboxymethylcellulose (CMC)) 2 of 6; under setting [3], 0 of 6; (dose: 120.0 mg/kg/injection, schedule: Q01DX009 (ip), vehicle: carboxymethylcellulose (CMC)) 0 of 6; (dose: 180.0 mg/kg/injection, schedule: Q01DX001 (ip), vehicle: carboxymethylcellulose (CMC)) 2 of 6. Also, the survivor count is, setting by setting: under setting [4], 0 of 6; (dose: 266.0 mg/kg/injection, schedule: Q01DX001 (ip), vehicle: carboxymethylcellulose (CMC)) 3 of 6; under setting [5], 0 of 6; (dose: 600.0 mg/kg/injection, schedule: Q01DX001 (ip), vehicle: carboxymethylcellulose (CMC)) 0 of 6.
Take `CC(Cc1ccccc1)N1C(=O)C=CC1=O` (stereo not drawn): the survivor count runs as follows: under setting [1], 5 of 6; under setting [2], 0 of 6; under setting [3], 0 of 6; under setting [4], 0 of 6; (dose: 400.0 mg/kg/injection, schedule: Q01DX009 (ip), vehicle: Klucel (hydroxypropylcellulose) (HPC)) 0 of 6.
As to `Clc1ccc2nnnn2n1`, the T/C (dose: 100.0 mg/kg/injection, schedule: Q01DX009 (ip), vehicle: saline with Tween-80) is 125 % of control; the T/C (dose: 200.0 mg/kg/injection, schedule: Q01DX009 (ip), vehicle: saline with Tween-80) was 136 % of control [5 of 6 alive]; the T/C (dose: 250.0 mg/kg/injection, schedule: Q04DX003 (ip), vehicle: saline) is 127 % of control. The survivor count (dose: 400.0 mg/kg/injection, schedule: Q01DX009 (ip), vehicle: saline with Tween-80) is 0 of 6.
On to `CN(C)N=Nc1cc(Cl)cc(C(N)=O)c1Cl`, for which the T/C (dose: 266.0 mg/kg/injection, schedule: Q01DX009 (ip), vehicle: saline with Tween-80) is 133 % of control. The survivor count (dose: 600.0 mg/kg/injection, schedule: Q01DX009 (ip), vehicle: saline with Tween-80) is given as 6 of 6.
Take `CN=C(NC)c1ccc(NC(=O)c2cc(C(=O)Nc3ccc(C(=NC)NC)cc3)cc([N+](=O)[O-])c2)cc1`: the survivor count is, setting by setting: (dose: 30.0 mg/kg/injection, schedule: Q01DX Z (ip), vehicle: saline) 0 of 6 and 2 of 6; (dose: 60.0 mg/kg/injection, schedule: Q01DX Z (ip), vehicle: saline) 0 of 6; (dose: 120.0 mg/kg/injection, schedule: Q01DX Z (ip), vehicle: saline) 0 of 6.
In the case of `Cc1ccc(Cl)cc1NC(=O)Nc1ccc(N(C)C)cc1`, the survivor count (dose: 400.0 mg/kg/injection, schedule: Q04DX002 (ip), vehicle: saline with Tween-80) was 6 of 6.
With `Cc1nc(Br)c(Br)n1C`, the survivor count (dose: 200.0 mg/kg/injection, schedule: Q04DX002 (ip), vehicle: Klucel (hydroxypropylcellulose) (HPC)) is 3 of 3; the survivor count (dose: 400.0 mg/kg/injection, schedule: Q04DX002 (ip), vehicle: Klucel (hydroxypropylcellulose) (HPC)) was 0 of 3; the survivor count (dose: 400.0 mg/kg/injection, schedule: Q04DX002 (ip), vehicle: carboxymethylcellulose (CMC)) is 0 of 3 and 1 of 6; the survivor count (dose: 400.0 mg/kg/injection, schedule: Q04DX003 (ip), vehicle: carboxymethylcellulose (CMC)) is reported as 6 of 6.
For the compound `COC1=CCC23C(=O)C=CC(=O)C2(C1)C(=O)c1ccccc1C3=O` (stereo not drawn), where the note is “dose: 25.0 mg/kg/injection, schedule: Q01DX005 (ip), vehicle: saline with Tween-80”, the survivor count is reported as 0 of 4.
As to `O=C(COc1ccc(Cl)c(Cl)c1)NCc1ccc[n+](Cc2cccc(Cl)c2S(=O)(=O)F)c1`, the survivor count (dose: 200.0 mg/kg/injection, schedule: Q04DX003 (ip), vehicle: saline) is 2 of 6 and the survivor count (dose: 400.0 mg/kg/injection, schedule: Q04DX003 (ip), vehicle: saline) is given as 0 of 6.
Take `CC(C)(CBr)C(=O)N1CCN(C(=O)C(C)(C)CBr)CC1`: the T/C is, setting by setting: (dose: 15.0 mg/kg/injection, schedule: Q01DX Z (ip), vehicle: methylcellulose (MC)) 130 % of control [5 of 6 alive]; (dose: 21.0 mg/kg/injection, schedule: Q01DX Z (ip), vehicle: carboxymethylcellulose (CMC)) 134 % of control [7 of 8 alive]; (dose: 35.0 mg/kg/injection, schedule: Q01DX Z (ip), vehicle: methylcellulose (MC)) 130 % of control. In addition, the survivor count reads like this: (dose: 42.0 mg/kg/injection, schedule: Q01DX Z (ip), vehicle: carboxymethylcellulose (CMC)) 2 of 8; (dose: 63.0 mg/kg/injection, schedule: Q01DX Z (ip), vehicle: carboxymethylcellulose (CMC)) 0 of 8; (dose: 102.0 mg/kg/injection, schedule: Q01DX Z (ip), vehicle: methylcellulose (MC)) 6 of 6; (dose: 153.0 mg/kg/injection, schedule: Q01DX Z (ip), vehicle: methylcellulose (MC)) 5 of 6.
Consider `CCN(CC)N=Nc1ccccc1-c1nc(N)c2ccccc2n1`, for which, under “dose: 400.0 mg/kg/injection, schedule: Q04DX003 (ip), vehicle: Klucel (hydroxypropylcellulose) (HPC)”, the survivor count was 1 of 6.
With `O=C(CCl)NCCCC1CCCCC1`, the survivor count runs as follows: (dose: 100.0 mg/kg/injection, schedule: Q04DX002 (ip), vehicle: saline) 2 of 3; (dose: 200.0 mg/kg/injection, schedule: Q04DX002 (ip), vehicle: saline) 0 of 3; (dose: 400.0 mg/kg/injection, schedule: Q04DX002 (ip), vehicle: saline) 0 of 3.
With `CCCC(O)(CCC)C(=O)O`, the survivor count (dose: 400.0 mg/kg/injection, schedule: Q01DX001 (ip), vehicle: saline) is recorded as 2 of 3.
`CS(=O)(=O)CC(=O)c1ccccc1`: for the setting “dose: 400.0 mg/kg/injection, schedule: Q04DX003 (ip), vehicle: saline with Tween-80”, the survivor count is on record as 5 of 6.
